Assay results from PMC8692146.
No constants are given. Whether binding was seen depends on the method and setting. In cells and extracts the contact can be indirect. Some binding calls cover weakened binding; strength is not graded here.

T1: PTPN2 (UniProt P17706)
T1 sequence: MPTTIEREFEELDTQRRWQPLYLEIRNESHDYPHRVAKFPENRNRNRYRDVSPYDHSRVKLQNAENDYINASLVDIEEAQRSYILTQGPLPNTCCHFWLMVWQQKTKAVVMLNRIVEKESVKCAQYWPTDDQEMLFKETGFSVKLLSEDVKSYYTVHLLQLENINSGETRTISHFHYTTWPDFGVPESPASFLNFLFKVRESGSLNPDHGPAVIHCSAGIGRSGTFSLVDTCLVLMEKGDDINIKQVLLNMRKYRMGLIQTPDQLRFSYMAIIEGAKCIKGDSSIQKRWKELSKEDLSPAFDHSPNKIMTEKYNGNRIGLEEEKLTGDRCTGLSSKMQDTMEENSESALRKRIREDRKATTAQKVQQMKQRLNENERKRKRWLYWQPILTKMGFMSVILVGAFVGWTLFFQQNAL

T2: HK2 (UniProt P52789)
T2 sequence: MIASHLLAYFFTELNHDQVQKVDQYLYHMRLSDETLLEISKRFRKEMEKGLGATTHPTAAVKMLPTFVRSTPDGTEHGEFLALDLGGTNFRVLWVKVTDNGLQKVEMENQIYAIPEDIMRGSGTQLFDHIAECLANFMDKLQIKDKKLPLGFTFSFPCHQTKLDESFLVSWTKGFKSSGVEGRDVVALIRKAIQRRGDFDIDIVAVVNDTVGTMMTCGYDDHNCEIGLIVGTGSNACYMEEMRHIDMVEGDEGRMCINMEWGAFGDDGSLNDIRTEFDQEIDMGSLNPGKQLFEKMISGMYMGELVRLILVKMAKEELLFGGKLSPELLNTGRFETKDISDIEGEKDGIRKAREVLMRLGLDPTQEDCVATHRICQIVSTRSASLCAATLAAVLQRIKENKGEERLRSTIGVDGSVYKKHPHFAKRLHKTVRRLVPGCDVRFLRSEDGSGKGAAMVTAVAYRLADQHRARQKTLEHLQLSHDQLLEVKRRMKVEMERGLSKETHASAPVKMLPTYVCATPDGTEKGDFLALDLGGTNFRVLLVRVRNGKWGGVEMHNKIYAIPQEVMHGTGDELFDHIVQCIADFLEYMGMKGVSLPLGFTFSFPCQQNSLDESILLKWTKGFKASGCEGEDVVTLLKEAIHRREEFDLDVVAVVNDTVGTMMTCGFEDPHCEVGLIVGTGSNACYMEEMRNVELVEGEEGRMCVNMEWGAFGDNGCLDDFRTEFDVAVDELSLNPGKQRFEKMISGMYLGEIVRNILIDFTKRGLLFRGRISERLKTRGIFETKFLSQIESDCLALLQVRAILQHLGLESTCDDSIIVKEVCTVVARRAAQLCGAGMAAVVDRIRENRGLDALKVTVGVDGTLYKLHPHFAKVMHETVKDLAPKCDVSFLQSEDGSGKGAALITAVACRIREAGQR


Experiments:
PTPN2 = molecular target: T1, PTPN2; experiment: co-IP; Huh7 cells, overexpressed HK2 and PTPN2; reciprocal co-IP
HK2 = molecular target: T2, HK2; experiment: as above

binding (PTPN2) | binding (HK2) | Binder
binds |  | HK2 (enzyme, UniProt P52789 1-917) MIASHLLAYFFTELNHDQVQKVDQYLYHMRLSDETLLEISKRFRKEMEKGLGATTHPTAAVKMLPTFVRSTPDGTEHGEFLALDLGGTNFRVLWVKVTDNGLQKVEMENQIYAIPEDIMRGSGTQLFDHIAECLANFMDKLQIKDKKLPLGFTFSFPCHQTKLDESFLVSWTKGFKSSGVEGRDVVALIRKAIQRRGDFDIDIVAVVNDTVGTMMTCGYDDHNCEIGLIVGTGSNACYMEEMRHIDMVEGDEGRMCINMEWGAFGDDGSLNDIRTEFDQEIDMGSLNPGKQLFEKMISGMYMGELVRLILVKMAKEELLFGGKLSPELLNTGRFETKDISDIEGEKDGIRKAREVLMRLGLDPTQEDCVATHRICQIVSTRSASLCAATLAAVLQRIKENKGEERLRSTIGVDGSVYKKHPHFAKRLHKTVRRLVPGCDVRFLRSEDGSGKGAAMVTAVAYRLADQHRARQKTLEHLQLSHDQLLEVKRRMKVEMERGLSKETHASAPVKMLPTYVCATPDGTEKGDFLALDLGGTNFRVLLVRVRNGKWGGVEMHNKIYAIPQEVMHGTGDELFDHIVQCIADFLEYMGMKGVSLPLGFTFSFPCQQNSLDESILLKWTKGFKASGCEGEDVVTLLKEAIHRREEFDLDVVAVVNDTVGTMMTCGFEDPHCEVGLIVGTGSNACYMEEMRNVELVEGEEGRMCVNMEWGAFGDNGCLDDFRTEFDVAVDELSLNPGKQRFEKMISGMYLGEIVRNILIDFTKRGLLFRGRISERLKTRGIFETKFLSQIESDCLALLQVRAILQHLGLESTCDDSIIVKEVCTVVARRAAQLCGAGMAAVVDRIRENRGLDALKVTVGVDGTLYKLHPHFAKVMHETVKDLAPKCDVSFLQSEDGSGKGAALITAVACRIREAGQR
 | binds | PTPN2 (enzyme, UniProt P17706 1-415) MPTTIEREFEELDTQRRWQPLYLEIRNESHDYPHRVAKFPENRNRNRYRDVSPYDHSRVKLQNAENDYINASLVDIEEAQRSYILTQGPLPNTCCHFWLMVWQQKTKAVVMLNRIVEKESVKCAQYWPTDDQEMLFKETGFSVKLLSEDVKSYYTVHLLQLENINSGETRTISHFHYTTWPDFGVPESPASFLNFLFKVRESGSLNPDHGPAVIHCSAGIGRSGTFSLVDTCLVLMEKGDDINIKQVLLNMRKYRMGLIQTPDQLRFSYMAIIEGAKCIKGDSSIQKRWKELSKEDLSPAFDHSPNKIMTEKYNGNRIGLEEEKLTGDRCTGLSSKMQDTMEENSESALRKRIREDRKATTAQKVQQMKQRLNENERKRKRWLYWQPILTKMGFMSVILVGAFVGWTLFFQQNAL
